Among the data in paper PMC10394028 are binding values, retold here.

In one experiment the target is T1, Myc-tagged TRIB1 (human) (UniProt Q96RU8).
T1 sequence: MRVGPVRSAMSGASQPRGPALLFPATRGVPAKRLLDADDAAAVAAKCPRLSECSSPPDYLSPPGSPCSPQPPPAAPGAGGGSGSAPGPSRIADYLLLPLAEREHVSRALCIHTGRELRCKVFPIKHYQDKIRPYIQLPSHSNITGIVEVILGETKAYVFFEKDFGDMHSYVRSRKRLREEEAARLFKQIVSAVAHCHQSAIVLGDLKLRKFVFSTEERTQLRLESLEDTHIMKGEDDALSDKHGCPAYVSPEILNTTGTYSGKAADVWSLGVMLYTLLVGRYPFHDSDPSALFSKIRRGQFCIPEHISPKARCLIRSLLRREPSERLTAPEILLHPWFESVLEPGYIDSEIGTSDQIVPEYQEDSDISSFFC
The experiment can be described thus: co-IP; Myc-tagged TRIB1 precipitated (Pierce anti-c-Myc magnetic beads) from total lysates of stable T08-387 cells; eluate blotted for Akt and p-Akt S473.

In the next experiment the target is T2, TRIB1-W337A-MYC (human) (UniProt Q96RU8).
T2 sequence: T1 sequence with W337A
Described as above.

Numbering of substitutions follows the chain as printed. These are yes or no findings as the source states them, for the method shown. Binding seen in cells or lysates may run through a third protein. A result given as binding can be weak or reduced; the word gives no strength. Sequences can lack the tags named with a protein.

Take “Akt (human (endogenous in T08-387 and HEK293))”: the binding result in the experiment with Myc-tagged TRIB1 (human) and with TRIB1-W337A-MYC (human) was “binds” throughout.
